Laboratory results as given in PubChem BioAssay AID1347423 (Functional Genomics Laboratory (NCATS/FGL), 2020).
Screen size: about 52,000 sequences; about 210 (0.4%) were called active.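 The calls were made as follows: active = gene whose silencing raises cell survival under the drug, median off-target-corrected z-score across its silencing RNAs 2 or more; inactive = the rest.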 Some of the results follow.

Experiment: Resistance to Poly (ADP-Ribose) Polymerase inhibitor: Gene Identification via Genome-wide siRNA Screen
Conditions: mouse BRCA2 R2336H ES cells, olaparib, CellTiter-Glo viability; stronger effect = higher value
Procedure, shortened: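 Genome-wide siRNA screen (3 siRNAs/gene, 20 nM) in mouse ES cells carrying hypomorphic BRCA2 R2336H; olaparib 500 nM added 48 h post-transfection, CellTiter-Glo viability 72 h later. Normalized to plate-median negative control; MAD z-scores, gene median, seed-adjusted.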

Sequence	z-score
CCCAGGAACAAUAAAGAGGTT against Twist2	inactive: 1.29
CCAGGUAGAGCAAUUUCUATT against BC034099	inactive: 0.452
UCAACUCUUGACUUCGCUGTT against Usmg1	inactive: 0.468
UGGUGGAUAUAGGAUUCUUTT against Clm6	inactive: 1.35
GCAAGUCUUAAAGCUCUAGTT against Olfr601	inactive: 0.224
CCACAGUAUCUAAAAAGAGTT against Ubc	inactive: -2.35
GGACUUCAGACAAUCAAAATT against Gbp5	inactive: 0.153
GGAGAAAGGAAAAUAAGAGTT against Npy6r	inactive: 0.392
GCCAGAACCGCAUAUUCUUTT against Cks2	inactive: 1.08
GGAAAAACAAUUGAGCAUGTT against 3830421F13Rik	inactive: 0.885
GGCACAGCUUGCUGAAGCUTT against 1110019I14Rik	inactive: -1.72
CCUACAUGACCACAGAGUUTT against 2900006K08Rik	inactive: -0.119
CCUGACACCUAACUUUAAATT against C230013L11Rik	inactive: -0.499
GGAAGUGUACCUCAACAGCTT against Lrig1	inactive: 1.08
GGAAGAGCUCAACAUCAUUTT against Cnnm1	inactive: -1.16
CCAUCACCUCUUUGGAACUTT against 1110003A17Rik	inactive: -0.648
GUCUAUCGAUAUUCCAAAATT against D130007C19Rik	inactive: -0.816
GGUGAUGAAAAAGGACAGCTT against Oit1	inactive: -0.44
GGCAGCAUUAAAACUUAAGTT against 2500003M10Rik	inactive: -0.943
GCUGACUCAUCCAAGAACUTT against 1110014F24Rik	inactive: 0.0873
CCUGCUAAGAGAGUACUAUTT against Pglyrp2	inactive: -1.93
GGACCUGAACAAUAAGGUUTT against Tagap	inactive: 0.00221

Sequence	z-score
GGAGAUCCGAGUGAGGAAUTT against Eif3s9	inactive: -3.31
GCGUAUUUGGUGUUAAAAATT against Iars	inactive: -2.7
GGCUAACCACCCUCUUUCUTT against Rtn4rl1	inactive: -0.509
CCUUAUUUGGAUAUGCAGUTT against F2rl3	inactive: 0.247
GCUCCUCUGUAUAAAUUUUTT against Zfp512	inactive: 1.33
GGCUCACACUGGCUGAAGATT against H2-M10.4	inactive: -0.184
GGUCUUCCUAUCUAGAACCTT against 4933427L07Rik	inactive: 0.573
GGGCAAUGAUUUCGCCUUCTT against Ninj1	inactive: -0.231
GGUGAUGUCAAGAGUUUUCTT against Ptplb	inactive: 1.65
GGGACUUUGUAAACAGUUUTT against Peci	inactive: -1.27
GGAGAAGAAAAAGAAGGACTT against Pak1	inactive: -0.724
GGAAGGACUUAAACUUCAUTT against Csf2ra	inactive: 0.367
GCGGAUGAUCAAGAAUCGATT against Crebl1	inactive: 0.0752
GGUACUAUGGUUAAGCAGUTT against Dnd1	inactive: 1.06
GGCCAUGAGAAGAAGAAAGTT against 4933440J22Rik	inactive: 0.354
GGCAGAAAUCAAUGACUUGTT against Map2k7	inactive: -1.05
GGAGUGACCACAACAAUUGTT against Slc39a12	inactive: -1.62
CCUCGUCGAGUGGAAAAUUTT against C130099A20Rik	inactive: -2.62
GGAAUCGAAACCAAUGUGUTT against Il1rl2	inactive: 0.631
GGUACCCACCUUCGCUUAUTT against Ferd3l	inactive: 0.482
CGAUGAAUCAGAUUACUUUTT against Trip4	inactive: -0.492
GGUCAAUGUUUUAGUCAUATT against Olfr1138	inactive: 1.82

Sequence	z-score
GCCAUGCUAAUCAAGACGGTT against 1700012P16Rik	inactive: 1.06
GGUACUGACGCAUCUGAGGTT against Spata5l1	inactive: 0.809
CGAAGGGACCGAAGAAUCCTT against 5730538E15Rik	inactive: -0.602
CGAGGAUGAGUUCAGUGAGTT against Pdcl3	inactive: -1.07
GGAGGUUUUGAUGGACUGUTT against 2610528H13Rik	inactive: -0.424
GGGAGUGAUUUAAAGUUUCTT against L3mbtl3	inactive: -0.34
GGGAGUCCUGAGUUUCAAATT against 4933400F01Rik	inactive: 2.12
GCUGUUACUCUUAAACAAATT against Pdhx	inactive: 0.303
GGAAUUGAACAACCUGUUGTT against Anapc5	inactive: -1.46
GGUUCAGUUAAGUAAACAGTT against Cdh17	inactive: 3.1
CCUACUCUGGUAAAACCUUTT against 1500034J20Rik	inactive: 1.25
GGGAAACAAAAAGCAGAUATT against 2610204L23Rik	inactive: -1.72
GGAGACUGAAGGAAAUUAATT against 2810025M15Rik	inactive: 0.232
GGUGAAGCAUCAGUGACAATT against Ubxd2	inactive: -0.712
GGAGGUGGAAUCUUUCCCUTT against Aplp1	inactive: 1.38
GGAAGAUCUAUACUGUGGUTT against Expi	inactive: 0.449
CCGGUAAUGGUGAUAAUUGTT against Sall2	inactive: -1.6
GGGCAUCUAUCUAUUUACCTT against Mrpl55	inactive: 1.64
GCACUUGUGCUUUCAAUAATT against Rhox1	inactive: -0.692
GGAGAUGGAGCAGGAAGAGTT against Kelchl	inactive: -0.117
CCUGAUAAUCCUUGUACCATT against 2410002I01Rik	inactive: 0.39
CCUAUUUCCUUAUUUCCCGTT against Slc12a3	inactive: 0.942

Single entries from above.
For z-score, GGACCUGAACAAUAAGGUUTT against Tagap reads inactive: 0.00221
For z-score, CCUUAUUUGGAUAUGCAGUTT against F2rl3 reads inactive: 0.247
For z-score, GGUGAAGCAUCAGUGACAATT against Ubxd2 reads inactive: -0.712
For z-score, GUCUAUCGAUAUUCCAAAATT against D130007C19Rik reads inactive: -0.816
For z-score, GGUGAUGUCAAGAGUUUUCTT against Ptplb reads inactive: 1.65
For z-score, GCACUUGUGCUUUCAAUAATT against Rhox1 reads inactive: -0.692
